In paper PMC10958935:
No constants are given. Whether binding was seen depends on the method and setting. In cells and extracts the contact can be indirect. Some results given as binding are weak or reduced against the parent protein; the word gives no strength. Values belong to the substance of their own block, whether it stands above or below them.

Protein sequences, listed by entry. Tags and fused reporters are not part of them.
UniProt P67809: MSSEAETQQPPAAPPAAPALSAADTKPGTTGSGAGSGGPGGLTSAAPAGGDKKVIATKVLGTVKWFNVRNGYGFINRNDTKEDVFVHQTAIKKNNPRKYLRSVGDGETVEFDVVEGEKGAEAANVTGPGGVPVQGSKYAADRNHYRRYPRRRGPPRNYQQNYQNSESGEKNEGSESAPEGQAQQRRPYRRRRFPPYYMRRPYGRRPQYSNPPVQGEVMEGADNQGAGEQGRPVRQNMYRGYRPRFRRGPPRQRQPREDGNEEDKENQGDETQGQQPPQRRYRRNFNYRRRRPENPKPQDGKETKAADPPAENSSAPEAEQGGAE
UniProt Q00532: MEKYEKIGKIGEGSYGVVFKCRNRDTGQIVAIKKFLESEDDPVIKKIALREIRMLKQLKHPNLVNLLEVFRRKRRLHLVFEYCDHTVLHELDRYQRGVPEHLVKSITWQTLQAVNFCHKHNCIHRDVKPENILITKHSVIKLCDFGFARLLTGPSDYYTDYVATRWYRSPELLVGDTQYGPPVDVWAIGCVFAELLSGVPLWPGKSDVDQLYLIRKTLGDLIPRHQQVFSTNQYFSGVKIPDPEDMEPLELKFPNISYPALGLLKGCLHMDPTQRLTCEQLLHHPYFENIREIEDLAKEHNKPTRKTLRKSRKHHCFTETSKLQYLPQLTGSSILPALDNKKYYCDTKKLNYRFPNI

What was measured:
[1] = molecular target: SFB-YBX1 (Y box binding protein 1), expressed in HEK293T cells (UniProt P67809); test: co-IP; Flag-tag and Myc-tag plasmids introduced into HEK293T cells; cell extracts incubated with streptavidin (S) beads overnight at 4 °C; five washes with NETN buffer; western blotting
[2] = molecular target: Exogenous CDKL1 expressed in A549 and H1299 cells (UniProt Q00532); test: co-IP; exogenous CDKL1 expressed in A549 and H1299 cells; endogenous YBX1 detected
GST-CDKL1 fusion protein = GST-CDKL1 fusion protein (UniProt Q00532); test: pull-down; GST-only or GST-CDKL1 purified from E. coli incubated overnight with GST beads and proteins extracted from HEK293T cells transfected with SFB-YBX1; five washes; immunoblotting; only the target purified
[3] = molecular target: SFB-CDKL1 (cyclin-dependent kinase-like 1), exogenously expressed in HEK293T cells (UniProt Q00532); test: co-IP; Flag-tag and Myc-tag plasmids introduced into HEK293T cells; cell extracts incubated with streptavidin (S) beads overnight at 4 °C; five washes with NETN buffer; western blotting
[4] = molecular target: Endogenous YBX1 (Y box binding protein 1) of A549 and H1299 cells (human (endogenous in A549 and H1299)) (UniProt P67809); test: co-IP; endogenous proteins, H1299 cell extracts incubated with protein A/G agarose and IgG or YBX1 antibody; five washes with NETN buffer; western blotting

Substance: Myc-tagged CDKL1 (cyclin-dependent kinase-like 1), exogenously expressed in HEK293T cells (from UniProt Q00532 1-357)
binding [1]: binds

Substance: Endogenous YBX1 (Y box binding protein 1) of A549 and H1299 cells (from UniProt P67809 1-324)
binding [2]: binds

Substance: Endogenous CDKL1 (cyclin-dependent kinase-like 1) of H1299 cells (from UniProt Q00532 1-357)
binding [4]: binds

Next, values leading:

binding (GST-CDKL1 fusion protein): binds
Substance: SFB-YBX1 (Y box binding protein 1), expressed in HEK293T cells (from UniProt P67809 1-324)

binding [3]: binds
Substance: Myc-tagged YBX1 (Y box binding protein 1), exogenously expressed in HEK293T cells (from UniProt P67809 1-324)
